# Source: the supplement of paper PMC10849652
# Chains of the proteins cited; added tags and fusions are not shown. Lines headed by an entry give the natural chain unless they say otherwise; changes in a name come on top.
# UniProt Q9BR61: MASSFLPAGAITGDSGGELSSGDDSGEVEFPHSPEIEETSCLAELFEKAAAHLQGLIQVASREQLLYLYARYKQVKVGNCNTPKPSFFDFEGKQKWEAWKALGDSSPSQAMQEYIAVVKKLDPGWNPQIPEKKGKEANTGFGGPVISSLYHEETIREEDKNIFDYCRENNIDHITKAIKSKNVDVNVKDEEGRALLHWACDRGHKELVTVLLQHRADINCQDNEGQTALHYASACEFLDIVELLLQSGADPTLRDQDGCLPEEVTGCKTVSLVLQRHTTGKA
# UniProt Q9NUB1: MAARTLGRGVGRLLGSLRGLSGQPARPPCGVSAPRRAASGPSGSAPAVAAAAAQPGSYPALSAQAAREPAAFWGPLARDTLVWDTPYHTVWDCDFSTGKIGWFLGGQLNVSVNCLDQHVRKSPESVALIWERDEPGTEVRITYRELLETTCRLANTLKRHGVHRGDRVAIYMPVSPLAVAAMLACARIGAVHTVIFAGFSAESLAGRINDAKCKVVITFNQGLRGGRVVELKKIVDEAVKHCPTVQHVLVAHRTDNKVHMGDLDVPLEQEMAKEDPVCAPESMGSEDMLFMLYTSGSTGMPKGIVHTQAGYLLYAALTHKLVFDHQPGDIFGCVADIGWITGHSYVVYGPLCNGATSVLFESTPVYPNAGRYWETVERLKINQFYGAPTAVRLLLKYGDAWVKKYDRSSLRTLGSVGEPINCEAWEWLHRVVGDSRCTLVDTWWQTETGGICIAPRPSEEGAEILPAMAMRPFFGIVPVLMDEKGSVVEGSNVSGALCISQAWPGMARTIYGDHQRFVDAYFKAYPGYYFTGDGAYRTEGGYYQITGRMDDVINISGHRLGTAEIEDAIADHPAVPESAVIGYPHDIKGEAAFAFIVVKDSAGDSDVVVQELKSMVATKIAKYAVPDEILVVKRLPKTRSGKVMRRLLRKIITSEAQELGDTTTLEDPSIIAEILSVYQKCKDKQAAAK
# UniProt Q04771: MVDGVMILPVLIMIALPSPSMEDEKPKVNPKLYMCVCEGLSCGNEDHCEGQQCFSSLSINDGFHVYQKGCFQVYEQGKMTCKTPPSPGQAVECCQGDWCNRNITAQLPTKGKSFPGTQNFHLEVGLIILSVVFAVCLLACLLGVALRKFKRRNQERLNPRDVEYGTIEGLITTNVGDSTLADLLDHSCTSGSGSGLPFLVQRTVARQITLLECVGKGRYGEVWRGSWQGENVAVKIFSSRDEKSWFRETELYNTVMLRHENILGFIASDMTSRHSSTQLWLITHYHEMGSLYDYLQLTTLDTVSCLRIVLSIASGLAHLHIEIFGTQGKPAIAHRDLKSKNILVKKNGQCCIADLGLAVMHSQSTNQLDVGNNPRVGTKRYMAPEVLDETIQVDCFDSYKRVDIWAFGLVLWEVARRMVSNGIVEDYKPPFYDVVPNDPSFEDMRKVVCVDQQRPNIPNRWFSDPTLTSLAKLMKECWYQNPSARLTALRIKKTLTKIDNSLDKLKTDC
# UniProt P00519, whole entry, looked up: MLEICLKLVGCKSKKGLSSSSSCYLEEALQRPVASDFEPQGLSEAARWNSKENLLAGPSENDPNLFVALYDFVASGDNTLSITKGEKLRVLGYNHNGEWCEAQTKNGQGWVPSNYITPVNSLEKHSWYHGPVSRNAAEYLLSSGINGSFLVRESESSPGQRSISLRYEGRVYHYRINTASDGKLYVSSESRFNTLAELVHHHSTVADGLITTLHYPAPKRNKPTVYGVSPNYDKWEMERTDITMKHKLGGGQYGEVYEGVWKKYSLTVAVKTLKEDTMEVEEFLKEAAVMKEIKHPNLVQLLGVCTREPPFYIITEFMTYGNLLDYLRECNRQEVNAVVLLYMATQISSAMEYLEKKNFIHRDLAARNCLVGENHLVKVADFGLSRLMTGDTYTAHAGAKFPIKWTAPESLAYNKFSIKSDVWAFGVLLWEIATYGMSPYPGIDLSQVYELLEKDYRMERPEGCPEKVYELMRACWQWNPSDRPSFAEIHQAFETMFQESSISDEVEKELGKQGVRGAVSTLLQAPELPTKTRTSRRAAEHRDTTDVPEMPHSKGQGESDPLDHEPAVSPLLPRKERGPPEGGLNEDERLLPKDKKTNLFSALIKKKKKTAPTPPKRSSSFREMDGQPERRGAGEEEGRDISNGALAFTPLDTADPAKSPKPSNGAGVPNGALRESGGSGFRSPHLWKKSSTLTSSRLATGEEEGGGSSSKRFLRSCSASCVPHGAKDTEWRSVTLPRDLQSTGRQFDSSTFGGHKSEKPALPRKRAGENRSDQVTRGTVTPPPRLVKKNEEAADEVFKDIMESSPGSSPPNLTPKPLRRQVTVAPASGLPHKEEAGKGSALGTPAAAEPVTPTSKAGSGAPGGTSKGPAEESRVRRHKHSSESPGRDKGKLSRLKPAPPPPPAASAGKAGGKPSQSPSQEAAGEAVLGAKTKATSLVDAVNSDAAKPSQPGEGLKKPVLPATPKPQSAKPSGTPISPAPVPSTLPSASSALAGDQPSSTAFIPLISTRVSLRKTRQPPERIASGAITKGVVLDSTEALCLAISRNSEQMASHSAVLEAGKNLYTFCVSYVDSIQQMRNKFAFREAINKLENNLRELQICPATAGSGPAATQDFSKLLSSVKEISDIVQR
# UniProt A8K2U0: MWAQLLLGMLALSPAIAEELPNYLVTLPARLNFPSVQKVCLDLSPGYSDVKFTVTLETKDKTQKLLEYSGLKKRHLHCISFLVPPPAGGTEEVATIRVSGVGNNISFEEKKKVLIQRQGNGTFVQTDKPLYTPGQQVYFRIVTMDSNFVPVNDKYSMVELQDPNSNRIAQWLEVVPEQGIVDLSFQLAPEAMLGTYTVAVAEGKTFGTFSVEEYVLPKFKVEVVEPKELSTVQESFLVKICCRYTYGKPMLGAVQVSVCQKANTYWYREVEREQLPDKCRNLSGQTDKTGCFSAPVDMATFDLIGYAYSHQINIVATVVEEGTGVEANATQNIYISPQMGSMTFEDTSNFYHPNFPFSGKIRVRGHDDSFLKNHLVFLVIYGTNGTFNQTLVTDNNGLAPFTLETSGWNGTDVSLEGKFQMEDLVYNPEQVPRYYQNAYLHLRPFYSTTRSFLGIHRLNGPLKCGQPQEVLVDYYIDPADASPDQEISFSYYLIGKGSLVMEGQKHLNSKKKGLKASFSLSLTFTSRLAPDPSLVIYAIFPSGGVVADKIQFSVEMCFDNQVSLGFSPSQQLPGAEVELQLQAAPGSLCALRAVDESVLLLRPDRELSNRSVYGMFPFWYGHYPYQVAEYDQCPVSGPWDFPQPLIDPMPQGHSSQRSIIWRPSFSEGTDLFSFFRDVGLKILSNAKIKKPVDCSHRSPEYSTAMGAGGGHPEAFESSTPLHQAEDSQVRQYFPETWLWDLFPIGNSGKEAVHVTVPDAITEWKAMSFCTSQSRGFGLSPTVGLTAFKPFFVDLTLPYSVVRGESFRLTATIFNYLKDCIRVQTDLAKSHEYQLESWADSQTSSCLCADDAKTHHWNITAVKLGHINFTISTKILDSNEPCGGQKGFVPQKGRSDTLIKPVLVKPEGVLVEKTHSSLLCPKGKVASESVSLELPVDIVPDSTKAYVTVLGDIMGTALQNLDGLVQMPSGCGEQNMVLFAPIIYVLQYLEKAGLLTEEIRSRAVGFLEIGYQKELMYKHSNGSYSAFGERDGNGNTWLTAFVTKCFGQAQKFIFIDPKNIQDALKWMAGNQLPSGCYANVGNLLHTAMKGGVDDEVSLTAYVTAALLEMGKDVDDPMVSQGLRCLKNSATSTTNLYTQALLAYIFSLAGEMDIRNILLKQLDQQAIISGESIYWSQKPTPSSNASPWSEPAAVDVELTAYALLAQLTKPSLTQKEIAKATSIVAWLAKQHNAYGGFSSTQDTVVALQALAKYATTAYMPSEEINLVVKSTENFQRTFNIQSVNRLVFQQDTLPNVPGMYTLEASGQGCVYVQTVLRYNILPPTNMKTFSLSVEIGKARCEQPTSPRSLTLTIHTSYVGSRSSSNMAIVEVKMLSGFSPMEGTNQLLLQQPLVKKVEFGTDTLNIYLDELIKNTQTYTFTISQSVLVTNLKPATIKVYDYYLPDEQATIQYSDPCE
# UniProt Q86TW2: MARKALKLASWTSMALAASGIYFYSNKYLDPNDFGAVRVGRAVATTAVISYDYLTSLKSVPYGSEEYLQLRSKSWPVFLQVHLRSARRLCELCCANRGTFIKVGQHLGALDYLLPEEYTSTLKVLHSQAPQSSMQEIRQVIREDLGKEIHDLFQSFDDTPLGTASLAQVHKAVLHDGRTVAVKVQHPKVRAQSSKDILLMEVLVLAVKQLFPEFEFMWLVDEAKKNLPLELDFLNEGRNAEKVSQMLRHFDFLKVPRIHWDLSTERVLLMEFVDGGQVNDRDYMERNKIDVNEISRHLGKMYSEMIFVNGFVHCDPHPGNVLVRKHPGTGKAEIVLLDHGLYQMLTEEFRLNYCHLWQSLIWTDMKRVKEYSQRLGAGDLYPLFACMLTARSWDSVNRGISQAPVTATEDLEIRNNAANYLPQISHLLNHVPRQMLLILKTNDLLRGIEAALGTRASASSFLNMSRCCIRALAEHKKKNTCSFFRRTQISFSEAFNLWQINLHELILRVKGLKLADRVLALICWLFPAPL
# UniProt Q6JQN1: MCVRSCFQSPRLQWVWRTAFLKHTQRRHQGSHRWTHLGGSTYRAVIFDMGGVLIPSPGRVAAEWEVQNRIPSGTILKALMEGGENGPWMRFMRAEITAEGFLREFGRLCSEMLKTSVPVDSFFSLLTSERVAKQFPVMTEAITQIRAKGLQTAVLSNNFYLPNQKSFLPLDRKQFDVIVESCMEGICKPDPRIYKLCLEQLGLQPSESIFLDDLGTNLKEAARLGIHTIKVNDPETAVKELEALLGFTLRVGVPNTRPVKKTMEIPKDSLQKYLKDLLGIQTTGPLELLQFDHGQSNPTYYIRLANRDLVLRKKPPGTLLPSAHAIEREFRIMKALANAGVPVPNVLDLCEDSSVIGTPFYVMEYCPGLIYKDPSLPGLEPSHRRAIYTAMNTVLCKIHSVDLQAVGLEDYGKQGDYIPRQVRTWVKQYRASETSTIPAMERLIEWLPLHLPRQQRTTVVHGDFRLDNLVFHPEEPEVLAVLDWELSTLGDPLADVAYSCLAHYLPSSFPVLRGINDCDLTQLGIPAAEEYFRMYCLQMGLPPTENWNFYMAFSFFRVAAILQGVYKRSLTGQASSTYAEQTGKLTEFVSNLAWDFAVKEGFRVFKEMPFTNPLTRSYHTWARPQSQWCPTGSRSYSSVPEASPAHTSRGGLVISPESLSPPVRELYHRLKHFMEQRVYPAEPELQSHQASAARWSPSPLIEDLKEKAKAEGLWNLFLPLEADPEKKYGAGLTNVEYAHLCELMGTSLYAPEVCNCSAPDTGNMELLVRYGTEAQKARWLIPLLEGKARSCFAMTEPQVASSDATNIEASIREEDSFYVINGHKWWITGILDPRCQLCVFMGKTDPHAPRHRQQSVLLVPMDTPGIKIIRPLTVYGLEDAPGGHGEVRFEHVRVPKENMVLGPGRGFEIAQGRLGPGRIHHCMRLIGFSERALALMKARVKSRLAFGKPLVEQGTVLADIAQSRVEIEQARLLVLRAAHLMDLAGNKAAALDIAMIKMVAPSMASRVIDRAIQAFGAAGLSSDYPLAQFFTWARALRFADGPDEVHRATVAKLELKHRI
# UniProt Q15067: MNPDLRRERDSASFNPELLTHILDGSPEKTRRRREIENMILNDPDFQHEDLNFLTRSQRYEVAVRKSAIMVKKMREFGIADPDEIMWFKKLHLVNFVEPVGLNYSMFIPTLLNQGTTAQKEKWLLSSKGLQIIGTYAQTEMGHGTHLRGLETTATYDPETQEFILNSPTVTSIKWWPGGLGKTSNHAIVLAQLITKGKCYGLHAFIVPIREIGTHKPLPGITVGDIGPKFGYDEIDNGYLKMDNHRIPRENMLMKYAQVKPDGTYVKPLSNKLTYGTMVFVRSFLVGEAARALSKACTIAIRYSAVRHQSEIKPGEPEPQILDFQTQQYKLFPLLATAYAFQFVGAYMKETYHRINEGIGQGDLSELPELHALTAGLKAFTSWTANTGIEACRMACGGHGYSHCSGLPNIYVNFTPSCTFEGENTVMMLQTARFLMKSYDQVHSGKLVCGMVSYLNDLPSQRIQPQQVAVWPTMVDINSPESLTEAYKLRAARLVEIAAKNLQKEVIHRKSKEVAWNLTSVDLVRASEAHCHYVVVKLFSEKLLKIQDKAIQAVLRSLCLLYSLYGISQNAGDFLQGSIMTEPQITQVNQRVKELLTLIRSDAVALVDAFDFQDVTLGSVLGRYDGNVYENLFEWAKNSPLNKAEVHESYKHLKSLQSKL
# The list shows a part of the results. Residues, ends and D or L forms follow the SMILES beside them. *: point of attachment. Cbz = O=C(OCc1ccccc1)*
# Assays:
# Assay in all cases: log2 fold change, soluble protein after heating vs DMSO (PISA); higher = thermal stabilisation; K562 cells, 10 uM, 30 min; active = over 0.2 and 3.5 SD of the protein, either way, in both replicates (recomputed)
# erlotinib = compound: C#Cc1cccc(Nc2ncnc3cc(OCCOC)c(OCCOC)cc23)c1 [erlotinib]
# Outline: (§1)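 K562 cells at 2×10^6 cells/mL were given 10 μM compound for 30 min. Aliquots then went through 3 min of heating across 48°C-58°C, were pooled, and were extracted in PBS with 0.5% NP-40 at 4°C, and the supernatant after 21,000xg for 90 min was quantified by TMTpro 16plex LC-MS/MS with channel sums equalised. Thermal stability relative to control samples, from duplicates, is given as log2 fold change.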
# [1] = compound: C/C(=N\NC(=O)C1=CC(=CC=C1)S(=O)(=O)N2CCOCC2)/C3=C(C=CC(=C3)Cl)O
# Outline: as §1
# [2] = compound: C1=CC(=C(C=C1Cl)C2=NC3=NC=CN=C3C(=N2)NC4=CC=NC=C4)F
# Outline: as §1
# [3] = compound: C1=CC(=CC=C1C2=NC3=C(N2)C=C(C=C3)C(=O)N)OC4=CC=C(C=C4)Cl
# Outline: as §1
# [4] = compound: C1=CC2=C(C=CC(=C2)/C=C\3/C(=O)NC(=NCC4=CC=CS4)S3)N=C1
# Outline: as §1
# [5] = compound: C1=CC2=NC=CN=C2C=C1/C=C/3\C(=O)NC(=O)S3
# Outline: as §1
# [6] = compound: C1=CC=C(C=C1)C2=NC(=C(N2)C3=CC=NC=C3)C4=CC(=C(C=C4)Cl)O
# Outline: as §1
# [7] = compound: C1=CC=C2C(=C1)C3=NNC4=CC=CC(=C43)C2=O
# Outline: as §1
# [8] = compound: C1CCN(C1)C(=O)NC2=CC=CC(=C2)NC3=NC=C(C(=N3)NCCC4=CN=CN4)Br
# Outline: as §1
# [9] = compound: C1CN(CCC1(CC2=CC=C(C=C2)Cl)N)C3=NC=NC4=C3C=CN4
# Outline: as §1
# IRAK-1-4 Inhibitor I = compound: C1COCCN1CCN2C3=CC=CC=C3N=C2NC(=O)C4=CC(=CC=C4)[N+](=O)[O-] [IRAK-1-4 Inhibitor I]
# Outline: as §1
# ibrutinib = compound: C=CC(=O)N1CCC[C@@H](n2nc(-c3ccc(Oc4ccccc4)cc3)c3c(N)ncnc32)C1 [ibrutinib]
# Outline: as §1
# [10] = compound: CC(=O)c1cnc2ccc(-c3cc(Cl)c(O)c(Cl)c3)nc2c1N[C@H]1CC[C@H](CN(C)C)CC1
# Outline: as §1
# ralimetinib = compound: CC(C)(C)Cn1c(N)nc2ccc(-c3[nH]c(C(C)(C)C)nc3-c3ccc(F)cc3)nc21 [ralimetinib]
# Outline: as §1
# [11] = compound: CC(C)(O)CC(=O)NCCn1ccc2ncnc(Nc3ccc(Oc4cccc(C(F)(F)F)c4)c(Cl)c3)c21
# Outline: as §1
# [12] = compound: CC(C)C1=C2N=C(C=C(N2N=C1)NCC3=CC=CC=C3)NCCCCCCN
# Outline: as §1
# [13] = compound: CC(C)C[C@@H](C=O)NC(=O)[C@H](CC(C)C)NC(=O)[C@H](CC(C)C)NC(=O)OCc1ccccc1
# Outline: as §1
# pinometostat = compound: CC(C)N(C[C@H]1O[C@@H](n2cnc3c(N)ncnc32)[C@H](O)[C@@H]1O)[C@H]1C[C@@H](CCc2nc3cc(C(C)(C)C)ccc3[nH]2)C1 [pinometostat]
# Outline: as §1
# [14] = compound: CC1=C(C2=C(C=C1)C(=O)C3=CC=CC=C3N2CCCN)C
# Outline: as §1
# [15] = compound: CC1=C(C(CC(=O)N1)C2=CC=C(C=C2)C(F)(F)F)C(=O)NC3=C(C=C4C(=C3)C=NN4)F
# Outline: as §1
Target,log2 fold change (erlotinib),log2 fold change [1],log2 fold change [2],log2 fold change [3],log2 fold change [4],log2 fold change [5],log2 fold change [6],log2 fold change [7],log2 fold change [8],log2 fold change [9],log2 fold change (IRAK-1-4 Inhibitor I),log2 fold change (ibrutinib),log2 fold change [10],log2 fold change (ralimetinib),log2 fold change [11],log2 fold change [12],log2 fold change [13],log2 fold change (pinometostat),log2 fold change [14],log2 fold change [15]
"AAK1, A0A096LP25",inactive: 0.043,inactive: -0.092,inactive: -0.027,inactive: 0.02,inactive: 0.234,inactive: 0.107,inactive: 0.017,inactive: 0.254,inactive: 0.255,inactive: 0,inactive: -0.063,inactive: 0.074,inactive: 0.319,inactive: -0.01,inactive: -0.034,inactive: -0.145,inactive: 0.065,inactive: -0.033,inactive: -0.044,–
ACBD6 (UniProt Q9BR61),inactive: 0.056,inactive: -0.031,inactive: 0.134,inactive: 0.108,inactive: 0.007,inactive: 0.011,inactive: -0.078,inactive: 0.073,inactive: -0.186,inactive: -0.216,inactive: -0.072,inactive: 0.009,active: 0.477,inactive: -0.169,inactive: -0.068,inactive: 0.173,inactive: 0.159,inactive: 0.008,inactive: 0.074,–
ACSS1 (UniProt Q9NUB1),inactive: -0.037,inactive: 0.019,–,inactive: -0.007,inactive: 0.035,inactive: 0,inactive: -0.231,inactive: -0.029,inactive: 0.122,inactive: -0.054,inactive: 0.046,inactive: 0.056,inactive: 0.042,inactive: -0.024,–,inactive: -0.002,inactive: 0.089,inactive: -0.129,inactive: -0.303,inactive: 0.091
ACVR1 (UniProt Q04771),inactive: -0.101,inactive: -0.051,inactive: 0.021,inactive: 0.031,inactive: -0.021,–,–,inactive: 0.136,inactive: -0.326,inactive: 0.035,–,–,active: 0.873,–,inactive: -0.158,inactive: 0.06,–,–,inactive: 0.127,–
ABL1 isoform 2 (UniProt P00519),inactive: 0.096,inactive: -0.022,inactive: -0.107,inactive: -0.102,inactive: -0.079,inactive: 0.066,inactive: -0.094,inactive: 0.101,inactive: -0.162,inactive: -0.077,–,inactive: 0.089,inactive: -0.168,inactive: 0.103,inactive: 0.048,inactive: -0.149,inactive: 0.039,–,inactive: 0.004,–
ACTC1 (UniProt P68032),inactive: 0.209,–,–,inactive: 0.015,–,–,–,–,–,–,–,–,–,–,–,inactive: -0.034,–,–,–,–
A2ML1 (UniProt A8K2U0),inactive: 0.387,inactive: -0.061,–,inactive: -0.133,inactive: 0.325,–,inactive: -0.288,inactive: -0.453,inactive: -0.443,inactive: -0.688,–,–,inactive: -0.238,inactive: -0.068,–,inactive: 0.308,inactive: -0.081,–,inactive: 0.706,inactive: -0.3
ADCK1 (UniProt Q86TW2),inactive: -0.042,–,inactive: -0.033,inactive: 0.062,–,–,inactive: -0.008,–,inactive: 0.047,inactive: 0.011,inactive: 0.102,–,–,inactive: 0.001,inactive: -0.097,inactive: 0.043,inactive: 0.067,inactive: 0.027,inactive: -0.047,inactive: 0.057
ACAD10 isoform 5 (UniProt Q6JQN1),inactive: 0.195,inactive: 0.071,–,inactive: -0.099,inactive: 0.138,–,inactive: -0.509,inactive: 0.1,–,–,–,–,inactive: -0.078,inactive: 0.06,–,inactive: -0.092,inactive: 0.186,–,–,–
ACSL6 isoform 1 (UniProt Q9UKU0),inactive: -0.066,–,inactive: 0.02,inactive: 0.025,–,inactive: -0.083,inactive: -0.061,–,inactive: -0.03,inactive: 0.04,–,inactive: 0.043,–,inactive: -0.001,inactive: 0.222,inactive: -0.21,inactive: 0.027,–,inactive: 0.012,–
ACOX1 isoform 3 (UniProt Q15067),–,–,–,–,–,–,–,–,inactive: 0.198,inactive: 0.063,inactive: -0.073,–,–,–,–,–,–,inactive: -0.054,inactive: 0.343,–
"ACAT1, A0A5F9ZHJ0",–,inactive: 0.034,inactive: 0.148,–,inactive: 0.183,inactive: 0.044,–,inactive: -0.078,inactive: -0.034,inactive: 0.057,inactive: 0.041,inactive: -0.014,inactive: 0.261,–,inactive: 0.164,–,–,inactive: 0.145,inactive: -0.068,inactive: 0.167
